Assay results as given in the supplement of paper PMC5662767.
Counter-ions that a name gives are not always drawn. The list shows a part of the results. Part of the spread comes from offsets between plates or batches.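 A clonal Drosophila S2 line expresses Smoothened bearing circularly permuted GFP in its cytoplasmic tail; Hh-driven phosphorylation opens an inhibitory loop, making it fluoresce. Flow cytometry measured per-cell fluorescence, normalized to Hh-stimulated untreated cells. Hits were inhibitor groups with shared pathway targets that consistently shifted fluorescence, not individual compounds.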

Tested on: Drosophila S2 cl14 SmoIP sensor cells
Assay: normalized SmoIP GFP fluorescence (untreated unstimulated = 0%, untreated Hh-stimulated = 100%); higher = more Smo activation sensor fluorescence
Conditions: compound concentration: 15 uM, 24 h
[1] = stimulation: Hh conditioned medium (+Hh)
[2] = stimulation: mock conditioned medium (-Hh)

| Structure (SMILES) | normalized SmoIP GFP fluorescence [1] | normalized SmoIP GFP fluorescence [2] |
| --- | --- | --- |
| CC(=O)O[C@]1(C(C)=O)CC[C@H]2[C@@H]3C=C(Cl)C4=CC(=O)[C@@H]5C[C@@H]5[C@]4(C)[C@H]3CC[C@@]21C [cyproterone-acetate] | 190% | 31.3% |
| CNC(=O)[C@H](Cc1ccccc1)NC(=O)[C@H](CC(C)C)[C@H](CSc1cccs1)C(=O)NO | 123% | 0.0767% |
| COc1ccc(CNc2nc(N3CCC[C@H]3CO)ncc2C(=O)NCc2ncccn2)cc1Cl [avanafil] | 105% | 1.44% |
| O=c1cc(-c2ccccc2)oc2cc(O)c(O)c(O)c12 [Baicalein] | 149% | -1.38% |
| CCc1cncnc1N1CCN(Cc2nc3ccc(C(F)(F)F)cc3[nH]2)CC1 | 130% | 64.6% |
| c1cncc(CN2CCC(n3ncc4c(N5CCOCC5)nc(-c5ccc6[nH]ccc6c5)nc43)CC2)c1 | 145% | 77.5% |
| Cc1cnc(-c2cc(N3CCN(C(=O)CCS(C)(=O)=O)CC3)ncc2Cl)c(C)c1 | 109% | 0.815% |
| CN(C)CCC(c1ccc(Cl)cc1)c1ccccn1 (centres undefined) [Chlorpheniramine-maleate] | 129% | 0.334% |
| Fc1ccc([C@@H]2CCNC[C@H]2COc2ccc3c(c2)OCO3)cc1 [paroxetine-hcl] | 140% | 22.2% |
| CCn1c(-c2nonc2N)nc2c(C#CC(C)(C)O)ncc(OC[C@H]3CCCNC3)c21 | 95.2% | -5.22% |
| O=C(O)c1ccc(N2C(=O)/C(=C\c3ccc(-c4ccc([N+](=O)[O-])cc4)o3)C=C2c2ccccc2)cc1 [4e1rcat] | 133% | 3.72% |
| N#Cc1cc(CN2CCC(Nc3ncnc4sc(Cl)cc34)CC2)ccc1F | 174% | 5.38% |
| CCOC(=O)[C@H](CCc1ccccc1)N[C@H]1CS[C@H](c2cccs2)CN(CC(=O)O)C1=O [temocapril-hcl] | 158% | -7.6% |
| COc1ccc2c(c1)C(=O)N(CCc1ccc(S(=O)(=O)NC(=O)NC3CCCCC3)cc1)C(=O)C2(C)C [gliquidone] | 112% | 9.22% |
| OC(CN1CCN(c2cccc(Cl)c2)CC1)C(c1ccccc1)c1ccccc1 (centres undefined) | 135% | 9.08% |
| C[C@@]1(c2cc(-c3cncnc3)c(F)cc2F)CCSC(N)=N1 | 142% | 24.1% |

Not a retest: an excerpt of the list.

| Structure (SMILES) | normalized SmoIP GFP fluorescence [1] | normalized SmoIP GFP fluorescence [2] |
| --- | --- | --- |
| OC(CN1CCN(c2cccc(Cl)c2)CC1)C(c1ccccc1)c1ccccc1 (centres undefined) | 135% | 9.08% |
| C[C@@]1(c2cc(-c3cncnc3)c(F)cc2F)CCSC(N)=N1 | 142% | 24.1% |

(more compounds)

| Structure (SMILES) | normalized SmoIP GFP fluorescence [1] | normalized SmoIP GFP fluorescence [2] |
| --- | --- | --- |
| Cc1cccc(CC(=O)N2CCc3c2ccc(-c2cn(C)c4ncnc(N)c24)c3F)n1 | 109% | 4.68% |
| COc1cc2ncnc(Oc3cccc(NC(=O)Nc4cc(C(C)(C)C(F)(F)F)on4)c3)c2cc1OC | 134% | -3.45% |
| C[S+]([O-])c1ccc(-c2nc(-c3ccc(F)cc3)c(-c3ccncc3)[nH]2)cc1 (centres undefined) | 183% | 49.2% |
| CC(C)C[C@H](NC(=O)[C@H](CCc1ccccc1)NC(=O)CN1CCOCC1)C(=O)N[C@@H](Cc1ccccc1)C(=O)N[C@@H](CC(C)C)C(=O)[C@@]1(C)CO1 [carfilzomib-pr-171] | 99.3% | 39.5% |
| CC1(C)CC(=O)c2c(C(F)(F)F)nn(-c3ccc(C(N)=O)c(N[C@H]4CC[C@H](O)CC4)c3)c2C1 | 247% | 41% |
| O=C(c1ccc(OCCN2CCCCC2)cc1)c1c(-c2ccc(O)cc2)sc2cc(O)ccc12 [Evista] | 156% | 60.6% |
| CCCCOc1ccc(C(=O)Nc2ccc(F)cc2F)cc1 | 109% | 1.61% |
| CN[C@H]1CC[C@@H](c2ccc(Cl)c(Cl)c2)c2ccccc21 [sertraline-hcl] | 154% | 37.7% |
| Cn1cc(-c2ccc3ncc(Cc4ccc5ncccc5c4)n3n2)cn1 | 130% | -12.7% |
| CCOC(=O)c1ccc(N2NC(=O)C(=Cc3ccc([N+](=O)[O-])o3)C2=O)cc1 | 263% | 87.6% |
| COC(=O)N[C@H](C(=O)N[C@@H](Cc1ccccc1)[C@@H](O)CN(Cc1ccc(-c2ccccn2)cc1)NC(=O)[C@@H](NC(=O)OC)C(C)(C)C)C(C)(C)C [Atazanavir] | 187% | 25.6% |
| CC(C)c1cnn2c(NCc3ccccc3)cc(NCCCCCCN)nc12 | 152% | 91.6% |
| CCS(=O)(=O)N1CC(CC#N)(n2cc(-c3ncnc4[nH]ccc34)cn2)C1 | 79.6% | 7.35% |
| CN1CCc2c(c3ccccc3n2Cc2ccc(C(=O)NO)cc2)C1 [tubastatin-a] | 108% | 0.986% |
| Cc1ccc(NC(=O)C2(c3ccc4c(c3)OC(F)(F)O4)CC2)nc1-c1cccc(C(=O)O)c1 | 102% | 8.46% |
| Nc1cc(C(F)(F)F)c(-c2cc(N3CCOCC3)nc(N3CCOCC3)n2)cn1 | 70.3% | 29.2% |
